From PubChem BioAssay AID1347426 (Functional Genomics Laboratory (NCATS/FGL), 2020)
Hit rate of the full screen: of about 31,000 sequences, about 1,400 (4.5%) were called active.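 The calls were made as follows: active = median seed-adjusted z-score above 1 or below -1; inactive = the rest.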 The list shows a part of the results.

Assay: Novel Modifiers of Survival Motor Neuron (SMN) Protein: Gene Identification via Genome-wide siRNA Screen;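 also: luminescence tracks full-length SMN protein made from the SMN2 reporter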
Details: HEK293T SMN2-luciferase reporter, siRNA knockdown, 72 h; actives lie on both sides
Summary of the method: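 HEK293T cells stably expressing an SMN2 splicing/cDNA-luciferase reporter were reverse-transfected with a druggable-genome siRNA library and read by luminescence at 72 hours; hits defined by MAD score above 1.0 or below -1.0.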
With GGAGAGCCUGAUCAACAAATT against NUP62 the median seed-adjusted z-score was inactive: 0. In the case of GGACCAGAACCACAAGCAATT against GHSR, the median seed-adjusted z-score was inactive: 0.18. In the case of GAAUCUCCAGGAGUAAGGATT against MAP3K1, the median seed-adjusted z-score was inactive: -0.217. With GGAUGCUCUGUGAUCAGUATT against PDK4 the median seed-adjusted z-score was inactive: -0.693. With GGCUUUCAUUGAGCAGGAATT against ATP6V1E2 the median seed-adjusted z-score was inactive: -0.162. With CCUGAGAGAUUAAGACUAUTT against GPSM3 the median seed-adjusted z-score was inactive: -0.641. For GACUCAGAGUAACAACGCATT against MARK2, the median seed-adjusted z-score was inactive: 0.664. With GAGCUUCGAUAUUAAGGCUTT against CHIA the median seed-adjusted z-score was inactive: 0.479. For CCAUCGCCUUGAAGGAGAATT against RNF31, the median seed-adjusted z-score was inactive: -0.687. With UGGAAAGGCUUAAAGAACATT against MUTED the median seed-adjusted z-score was inactive: 0.00377. With CAUCUAUCGUUACUUCCCATT against ZNF467 the median seed-adjusted z-score was inactive: 0. For GGACCUUCCUCAACUACUATT against EDEM2, the median seed-adjusted z-score was inactive: 0.36. For GGCUCAACAUGGACCGGAUTT against BCAT2, the median seed-adjusted z-score was inactive: 0.0438. With GAAUCUACGUCCCAAGAGATT against LIPE the median seed-adjusted z-score was inactive: -0.276. With ACCUUUACCAUAAACUACATT against EPDR1 the median seed-adjusted z-score was inactive: 0.369. For CGUUGUUACUGGUGGAUAUTT against SLC16A4, the median seed-adjusted z-score was inactive: 0.341. In the case of GCUAAAUGGAGGAGACUAATT against HHEX, the median seed-adjusted z-score was inactive: -0.428. In the case of GCAAGAUCUUAUCCACAGATT against CIP29, the median seed-adjusted z-score was active: -1.18. In the case of AGAUGUCCGAGCAACUGAATT against EXOSC1, the median seed-adjusted z-score was inactive: 0.0508. With AGCUCACACUAUGCAUUGATT against KRTAP2-2 the median seed-adjusted z-score was inactive: -0.212. For CCACCGACGACAAUCUGUATT against ATP4A, the median seed-adjusted z-score was inactive: 0. In the case of GGGAAGAUCUCGUUCAAAATT against CETN1, the median seed-adjusted z-score was inactive: 0.236. With AGACACCUCCUAGGACUAUTT against MZF1 the median seed-adjusted z-score was inactive: 0.215. With CCUAGAGCCUAGAACUGUATT against CABP7 the median seed-adjusted z-score was inactive: -0.268. For GCAUCAUCGAGUACCCUUUTT against GNA11, the median seed-adjusted z-score was inactive: -0.11. In the case of GCAAGACGUACAACUUAAATT against HSD17B10, the median seed-adjusted z-score was inactive: -0.355. With GGAGCCUAGUCAAGCCUGATT against VHL the median seed-adjusted z-score was inactive: -0.0797. In the case of GGAUAUUGCGUUUGGAACATT against TDP1, the median seed-adjusted z-score was inactive: -0.352. For CAGAUUUGGUAAAAGAGUATT against VPS26A, the median seed-adjusted z-score was active: -1.55. In the case of GCCCAAGAAUGGGAUGUAUTT against CYP4X1, the median seed-adjusted z-score was inactive: 0.546. With UCAUAUUCGUUGUAAUUUUTT against SLCO4A1 the median seed-adjusted z-score was inactive: -0.0802. In the case of AACCCAUCGUUCCAUAUUATT against PPOX, the median seed-adjusted z-score was inactive: 0.519. In the case of GUAACUACAGCAUAGAUUUTT against ZFP90, the median seed-adjusted z-score was inactive: 0. With UCUGCUAUUUGGUCCUGAATT against TOMM34 the median seed-adjusted z-score was inactive: -0.503. For GCCGAGUUUUGACCCUAGATT against SMC1B, the median seed-adjusted z-score was inactive: 0. With GGAGUAUAUGGUGAUCGAATT against KCNA3 the median seed-adjusted z-score was inactive: 0.213. With GCAGCAAAGGAAACCUAAATT against KLRC3 the median seed-adjusted z-score was inactive: 0.833. For ACAUUUUACAUGCAGCUAUTT against FABP5, the median seed-adjusted z-score was inactive: -0.258. With GGAUUUAUCUGUAACAUGATT against PDE6C the median seed-adjusted z-score was inactive: 0.205. For UGACCAUCGUCUACAAGAATT against COPZ2, the median seed-adjusted z-score was active: -1.23. In the case of CACUUGAUGUUAUUCGUGUTT against MOAP1, the median seed-adjusted z-score was inactive: 0.0405. For CGAGCAAGCUAUGGAUCUATT against TSC22D1, the median seed-adjusted z-score was inactive: 0. With AAAGAACUAUAUUGAAGAATT against GNG11 the median seed-adjusted z-score was inactive: 0.00609. For GCCUCGUUUUGGUACACCATT against KCND3, the median seed-adjusted z-score was inactive: 0.282. For UCAUUACCCUGGACCUGGATT against TDG, the median seed-adjusted z-score was inactive: 0.0549. In the case of UGAAGAUGAUUGUCCUUAUTT against VAMP8, the median seed-adjusted z-score was inactive: -0.184. With GGAGCUGACUGCGGACUAUTT against RHOT2 the median seed-adjusted z-score was inactive: 0.263. With CUGUACAACGUCAACCUCATT against SCNN1D the median seed-adjusted z-score was active: -1.8. In the case of GAUCUGUCAAAAUUCCGAATT against TRPC1, the median seed-adjusted z-score was inactive: -0.196. With CCAAGUUAUUGCUGACUUATT against CYP27C1 the median seed-adjusted z-score was inactive: 0.0462. For GGAGGACCUUCGGAACCAATT against PPP1R12C, the median seed-adjusted z-score was inactive: -0.535. With GGCUAAGAAUGACCAUUAUTT against NPR2 the median seed-adjusted z-score was inactive: 0.0712. For GGUAUGCUAUGUUGACUAUTT against TDRD7, the median seed-adjusted z-score was inactive: 0.11. In the case of CAAAGACCAGCGAAACAAATT against RYBP, the median seed-adjusted z-score was inactive: 0.831. With AGUUCAUGUUCACAAAGCATT against CX3CR1 the median seed-adjusted z-score was inactive: -0.292. With GGAUAACUGCAGGAGAACATT against WFDC3 the median seed-adjusted z-score was inactive: -0.644. In the case of GGGUAUUGCUAUCAGCGAATT against MPDZ, the median seed-adjusted z-score was inactive: -0.398. In the case of AGGCCUUUGAGUUUGUGAATT against DUSP1, the median seed-adjusted z-score was inactive: 0.336. With GAGUUACGAUGAGGUCAAATT against NIN the median seed-adjusted z-score was inactive: 0.646. With CAACUUCUAUAGUCGAAUATT against TXNDC3 the median seed-adjusted z-score was inactive: -0.649. In the case of CCAAGUUUUUGUAUCGCUUTT against CSRP2BP, the median seed-adjusted z-score was inactive: -0.526. With CGACUACUAUGAGCACCGUTT against HCN2 the median seed-adjusted z-score was inactive: 0. For ACAGUCUUGUGAUCAGAAATT against UHRF1, the median seed-adjusted z-score was inactive: 0.231. In the case of GGAUCCAAAGUUGAACAAATT against HNRNPAB, the median seed-adjusted z-score was inactive: -0.631. For CCCGUGAUUUUGACAUCUATT against SGPL1, the median seed-adjusted z-score was inactive: 0.139. With CAACAUUUAAAGAAGCUGATT against 14-Sep the median seed-adjusted z-score was inactive: 0.227. For CAGCUGUGACCUUUGCUAATT against AQP7, the median seed-adjusted z-score was inactive: 0.0827. With GCAAAUACGGUAUCGACAATT against CTTN the median seed-adjusted z-score was inactive: -0.314. For CAACCGAUCCAAACAGUUATT against SLC25A21, the median seed-adjusted z-score was inactive: -0.219.
